Some of these results come from one statement about several compounds together. At least one structure is not confirmed: it was looked up by name or label, or the drawing left a doubt.
Test system: Src Thr338Ile
Experiment: Inhibition of Src gatekeeper mutant
Format: biochemical, chicken
Source text: Kinase domain constructs of human c-Abl (residues 229-512), chicken c-Src (residues 251-533 and residues 83-533), murine Lck (residues 227-509), and human Hck (residues 166-445) were expressed as previously described (Seeliger, Young et al. 2005; Seeliger, Nagar et al. 2007; the entire contents of each of which are incorporated by reference herein). Mutations were introduced into chicken c-Src (residues 251-533) (T338I, C277Q, L297M) by site-directed mutagenesis and verified by DNA sequencing.
For the FRET-based endpoint assay, kinase assays were performed using Invitrogen's Z′-LYTE kinase assay using the Tyr 02 substrate peptide (based upon the optimal Abl substrate peptide […]) according to the manufacturer's instructions. Assays were performed at near KM ATP concentrations for full-length c-Src and full-length c-Src T338I-50 μM and 7 μM, respectively.

Compound	lower potency against gatekeeper mutant than against Src wild-type
O=C1/C=C\C(=O)N[C@@H](CC2CCCCC2)C(=O)N[C@@H](Cc2ccccc2)C(=O)N[C@@H](CCCNC(=O)c2cnccn2)C(=O)NCC[C@@H](C(=O)O)N1 [MC1.2]	at least 100 fold
NC(=O)[C@@H]1CCNC(=O)[C@H](CCCNC(=O)c2cnccn2)NC(=O)[C@H](Cc2ccco2)NC(=O)[C@H](CC2CC2)NC(=O)/C=C\C(=O)N1 [cis-A11-B1-C5-D7]	at least 100 fold

From patent publication US8975232B2, “Macrocyclic kinase inhibitors and uses thereof” (President and Fellows of Harvard College, priority 2010, dated 2015)
